Test results taken from patent publication US5750499A (The Salk Institute for Biological Studies, priority 1995, dated 1998).
Strings that start with PEPTIDE1 are HELM notation: dots part the residues, brackets hold end groups and non-standard residues. The same purity stands for every peptide and may come from a single statement.

Columns and labels:
[1] = general procedure: Boc solid-phase peptide synthesis; chloromethylated resin (styrene, 1-2% divinylbenzene; 0.5 to 2 mmol Cl/g); DCC; conditions: whole synthesis, HPLC and CZE
[2] = general procedure: Boc solid-phase peptide synthesis; chloromethylated resin; DCC; conditions: whole synthesis, capillary zone electrophoresis

PEPTIDE1{C.F.F.[dW].[IAmp].T.F.C}$PEPTIDE1,PEPTIDE1,1:R3-8:R3$$$V2.0
final HPLC purity [1]: greater than 97%

PEPTIDE1{C.K.F.F.[dW].[IAmp].T.F.T.S.C}$PEPTIDE1,PEPTIDE1,1:R3-11:R3$$$V2.0
final purity (method not given) [2]: greater than 97%

PEPTIDE1{C.K.F.F.[dW].[IAmp].T.F.T.[dS].C}$PEPTIDE1,PEPTIDE1,1:R3-11:R3$$$V2.0
final HPLC purity [1]: greater than 97%
